Some of the results follow. Small differences around the control level are noise.
System: hPSC-derived cortical neurons (WA09)
Experiment: KCl-induced FOS+/EGR-1+ double-positive nuclei fraction z-score (KCl minus unstimulated); higher = stronger activity-induced IEG response
Conditions: 5 µM; treatment: days 7-14 after plating, readout day 21

| Structure (SMILES) | KCl-induced FOS+/EGR-1+ double-positive nuclei fraction z-score |
| --- | --- |
| Nc1nc(F)nc2c1ncn2[C@@H]1O[C@H](CO)[C@@H](O)[C@@H]1O [Fludarabine] | 0.335 |
| CCCCNc1ncc2c(-c3ccc(CN4CCN(C)CC4)cc3)cn([C@H]3CC[C@H](O)CC3)c2n1 | 2.37 |
| NS(=O)(=O)c1cc2c(cc1Cl)NCNS2(=O)=O [Hydrochlorothiazide] | -1.23 |
| CN1CCN(c2c(F)cc3c(=O)c(C(=O)O)cn4c3c2OCN4C)CC1 [Marbofloxacin] | -0.831 |
| CS(=O)(=O)c1ccc(-c2nnc(/C=C/c3nnc(-c4ccc(C#N)cc4)o3)n2-c2ccccc2Cl)nc1 | -0.199 |
| CCCCC[C@H](O)/C=C/[C@H]1[C@H](O)CC(=O)[C@@H]1CCCCCCC(=O)O [Alprostadil] | 0.435 |
| CC1CNc2c(cccc2S(=O)(=O)N[C@@H](CCCNC(=N)N)C(=O)N2CC[C@@H](C)C[C@@H]2C(=O)O)C1 (stereo partly specified) [Argatroban] | 0.354 |
| CC1=NN(c2ccc(C)c(C)c2)C(=O)/C1=N\Nc1cccc(-c2cccc(C(=O)O)c2)c1O [Eltrombopag Olamine] | -0.219 |
| CCOc1nc2cccc(C(=O)OCc3oc(=O)oc3C)c2n1Cc1ccc(-c2ccccc2-c2noc(=O)[nH]2)cc1 [Azilsartan Medoxomil] | 1.66 |
| CNC[C@H](O)c1ccc(O)c(O)c1 [Epinephrine Bitartrate] | 0.246 |
| O=P(O)(O)C(Cl)(Cl)P(=O)(O)O [Clodronate Disodium] | 0.576 |

Random excerpt: 2 compounds from above.

| Structure (SMILES) | KCl-induced FOS+/EGR-1+ double-positive nuclei fraction z-score |
| --- | --- |
| CCOc1nc2cccc(C(=O)OCc3oc(=O)oc3C)c2n1Cc1ccc(-c2ccccc2-c2noc(=O)[nH]2)cc1 [Azilsartan Medoxomil] | 1.66 |
| CS(=O)(=O)c1ccc(-c2nnc(/C=C/c3nnc(-c4ccc(C#N)cc4)o3)n2-c2ccccc2Cl)nc1 | -0.199 |
